Results on 1 compound are retold here after patent US8859612B2, “Use of hesperidin or one of its derivatives for making a medicine for bone formation stimulation” (Institut National de la Recherche Agronomique (INRA), priority 2002, dated 2014).

Data set [1] can be described thus: Foodstuff consumption, weight change and body composition, six months' old rats (Example 3). It counts as in vivo, Wistar rats.
Data set [2] is described as follows: Change in weight and body composition (Example 1). To be noted: for body weight: diet supplemented with hesperidin (0.5%) for 3 months, end of experimental period, mean±SD. The format is in vivo, Wistar rats.

In the case of `COc1ccc([C@@H]2CC(=O)c3c(O)cc(O[C@@H]4O[C@H](CO[C@@H]5O[C@@H](C)[C@H](O)[C@@H](O)[C@H]5O)[C@@H](O)[C@H](O)[C@H]4O)cc3O2)cc1O` [hesperidin, (S)-7-[[6-0-(6-deoxy-α-L-mannopyranosyl)-β-D-glucopyranosyl]oxy]-2,3-dihydro-5-hydroxy-2-(3-hydroxy-4-methoxyphenyl)-4H-1-benzopyran-4-one], the “body composition (percentage of fat mass)” value in data set [1] (all groups (FIG. 9)) is “not significantly modified”. Moreover, the foodstuff consumption entry in data set [1] (groups SH, OVX, SH Hp, OVX Hp, hesperidin diet 72 days (FIG. 7)) is “no significant difference”. For the same compound, the body weight in data set [2] (Hp OVX: oophorectomised rats) was determined as 406.3 ± 12.7 g; in data set [2] (Hp SH: sham-operated rats) it was 335.4 ± 15.4 g. For the same compound, the “body composition (% fat mass with respect to total body weight)” value in data set [2] (between groups T SH, T OVX, Hp SH, Hp OVX, hesperidin 0.5% in diet, 3 months) is “no significant difference”.
